PubChem BioAssay AID1259308 | NCATS, 2017

- Test: 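Genes whose loss raises luciferase production in HEK293 cells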 (primary screen)
- Cell system: human HEK293 embryonic kidney cells stably expressing firefly luciferase (HEK-CMV-Luc2-Hygro)
- Knock-down reagent: single siRNA against human genes, 0.8 pmol siRNA per well
- Time to read-out: 72 h
- Detection: 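Luciferase light (ONE-Glo) measured on one replicate plate set and viability (CellTiter-Glo) on the other, scaled to a negative control siRNA, with robust z-scores and luciferase per cell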
- Direction: total luciferase, z-score and total luciferase, % of control: higher = more reporter protein produced; luciferase per cell, z-score: higher = more reporter output per viable cell; viable cells, % of control: higher = more viable cells
- Rule for the call: 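Active when the median/MAD z-score for overall luciferase is greater than 3; a gene was taken forward for validation with new siRNAs if at least two of its three siRNAs passed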
- Calls: active = raised luciferase; inactive = no rise
This is an unselected part of about 59,000 deposited reagents. Of all reagents, about 1,510 (2.6%) were called active. 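Calls use total luciferase alone and ignore viability, so some active siRNAs may act by altering cell number.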 Reagents against one gene are numbered here.

| target | reagent | total luciferase, z-score | total luciferase, % of control | luciferase per cell, z-score | viable cells, % of control | call |
| --- | --- | --- | --- | --- | --- | --- |
| BLTP3B | 1 | 0.949 | 101 | 0.853 | 89.9 | inactive |
| BLTP3B | 2 | 1.45 | 111 | 1.03 | 94.3 | inactive |
| BLTP3B | 3 | -0.243 | 77.1 | -0.0776 | 87.9 | inactive |
| GTSF1 | 1 | -0.496 | 72 | -0.96 | 104 | inactive |
| GTSF1 | 2 | 0.76 | 97 | 0.755 | 88.9 | inactive |
| GTSF1 | 3 | -0.846 | 65.1 | -0.359 | 79.9 | inactive |
| PPFIBP2 | 1 | -0.398 | 74 | -0.681 | 98.9 | inactive |
| PPFIBP2 | 2 | -0.622 | 69.5 | -0.148 | 80.8 | inactive |
| PPFIBP2 | 3 | 0.374 | 89.3 | -0.157 | 104 | inactive |
| TBX20 | 1 | -0.518 | 71.6 | -0.646 | 94.8 | inactive |
| TBX20 | 2 | -0.32 | 75.5 | 0.192 | 80.2 | inactive |
| TBX20 | 3 | 1.1 | 104 | 1.96 | 69.2 | inactive |
| MAT2A | 1 | -0.201 | 77.9 | 0.931 | 68.1 | inactive |
| MAT2A | 2 | -0.0605 | 80.7 | 0.00351 | 90.1 | inactive |
| MAT2A | 3 | 5.03 | 182 | 3.77 | 75.3 | active |
| TMCC3 | 1 | 0.278 | 87.4 | 0.468 | 86.4 | inactive |
| TMCC3 | 2 | -1.68 | 48.5 | -0.408 | 60.4 | inactive |
| TMCC3 | 3 | -0.381 | 74.3 | -0.436 | 93.1 | inactive |
| TNNT2 | 1 | -0.64 | 69.2 | 1.2 | 56.4 | inactive |
| TNNT2 | 2 | 1.24 | 106 | 1.09 | 89.3 | inactive |
| TNNT2 | 3 | 0.428 | 90.4 | 0.319 | 92.9 | inactive |

Just “total luciferase, % of control” (4 entries from above):
PPFIBP2 #1: 74
PPFIBP2 #2: 69.5
PPFIBP2 #3: 89.3
TBX20 #1: 71.6

The list goes on:
| target | reagent | total luciferase, z-score | total luciferase, % of control | luciferase per cell, z-score | viable cells, % of control | call |
| --- | --- | --- | --- | --- | --- | --- |
| PRR23A | 1 | 0.0203 | 82.3 | 1.17 | 67.5 | inactive |
| PRR23A | 2 | 0.131 | 84.5 | 2.71 | 46.2 | inactive |
| PRR23A | 3 | 0.213 | 86.1 | 0.422 | 86.1 | inactive |
| LBH | 1 | 0.201 | 85.9 | -0.215 | 102 | inactive |
| LBH | 2 | 0.914 | 100 | 0.0568 | 110 | inactive |
| LBH | 3 | 0.675 | 95.3 | 0.41 | 95.6 | inactive |
| MPEG1 | 1 | 0.696 | 95.7 | 0.576 | 91.9 | inactive |
| MPEG1 | 2 | -0.783 | 66.3 | -0.673 | 88.5 | inactive |
| MPEG1 | 3 | 0.517 | 92.2 | 1.13 | 76.6 | inactive |
| ERAL1 | 1 | 0.125 | 84.4 | 0.61 | 80.3 | inactive |
| ERAL1 | 2 | 1.19 | 106 | 1.22 | 85.7 | inactive |
| ERAL1 | 3 | -1.81 | 45.8 | -1.5 | 75.9 | inactive |
| OR1C1 | 1 | 1.11 | 104 | 0.113 | 113 | inactive |
| OR1C1 | 2 | -0.0315 | 81.3 | -0.145 | 94.3 | inactive |
| OR1C1 | 3 | -0.608 | 69.8 | -0.417 | 87.1 | inactive |
| SLC25A40 | 1 | -0.528 | 71.4 | 0.114 | 77.4 | inactive |
| SLC25A40 | 2 | 0.603 | 93.9 | 0.651 | 88.4 | inactive |
| SLC25A40 | 3 | -0.794 | 66.1 | -0.739 | 89.7 | inactive |
